Measured values: US20190225690A1
These are yes or no findings as the source states them, for the method shown. Some entries that bind do so weakly or less than the wild type.

Amino acid sequences for entries named in this document (tags omitted). A change or cut given only in a name is not applied to a line headed by its entry. Residues count along the entry.
UniProt P16410: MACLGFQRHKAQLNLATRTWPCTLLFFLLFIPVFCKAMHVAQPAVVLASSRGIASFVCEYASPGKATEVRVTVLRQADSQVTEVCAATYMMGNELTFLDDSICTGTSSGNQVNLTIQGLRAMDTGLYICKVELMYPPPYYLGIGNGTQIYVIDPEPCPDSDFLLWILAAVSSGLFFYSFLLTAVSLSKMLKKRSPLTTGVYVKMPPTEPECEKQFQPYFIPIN
human CTLA4 on hCTLA4-293T cells: residues 36-223 of P16410
human CTLA4 (construct not stated): residues 36-161 of P16410

Legend:
[1] = target: T1, cynomolgus macaque CTLA4 (cynomolgus macaque) (UniProt G7PL88); assay: protein based ELISA
T1 sequence: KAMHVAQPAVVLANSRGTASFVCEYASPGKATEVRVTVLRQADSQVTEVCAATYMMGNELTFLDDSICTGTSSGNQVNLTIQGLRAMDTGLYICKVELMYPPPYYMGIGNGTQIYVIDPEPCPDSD

[2] = target: human CTLA4 (construct not stated) (human) (UniProt P16410); assay: protein based ELISA
[3] = target: human CTLA4 (construct not stated) (human) (UniProt P16410); assay: SPR (Biacore 3000), antibody captured
[4] = target: human CTLA4 (construct not stated) (human) (UniProt P16410); assay: SPR (Biacore 3000), antibody captured by anti-mouse Fc mAb, CTLA4 as analyte
human CTLA4-hFc (human) = assay: ELISA on coated CTLA4-hFc
[5] = target: human CTLA4 on hCTLA4-293T cells (human) (UniProt P16410); assay: FACS on hCTLA4-293T cells
[6] = target: human CTLA4 (construct not stated) (human) (UniProt P16410); assay: SPR (Biacore 3000)

Measured: binding

B1: 6F3 murine (antibody, V domains shown)
VH: QVKLQESGAELVRPGASVTLSCKASGYTFTDYEMHWMKQTPVHGLEWIGVIDPETGGITYNQKFKGKATLTADKSSSTAYMEFLSLTSEDSAVYYCTRRGARATVYNYVMDYWGQGTSVTVSS
VL: DIVMTQTTASLSASVGETVTITCRASENIHNYLAWYQQKQGRSPQLLVYNAKTLGDGVPSRFSGSGSGTQYSLKINSLQPEDFGSYYCQHFWSTPWTFGGGTKLEIK
binds: [1] | [2] | [3] | [4]

B2: 10B10 murine (antibody, V domains shown)
VH: DVQLQESGPGLVTPSQSLSLTCSVTGYSITSGYSWNWIRQFPGNKLEWMGYIRFDGNNNYNPFLKNRISITRDTSENQFFLKLNSVTTEDTATYYCARNYGTWGAMDFWGQGTSVTVSS
VL: DIVLTQSPSSLSASLGGKVTITCKTSQDINKYMAWYQHKPGKGPRLLIYYTSILQPGIPSRFSGSGSGTDYSFSINNLEPEDIATYYCQQYDNLNTFGGGTMLEIK
not listed: [6]
binds: all other assays above

B3: 6F3 humanized (antibody, human IgG1, kappa, V domains shown)
VH: QVQLVQSGAEVKKPGSSVKVSCKASGYTFTDYEMHWVRQAPGQGLEWIGVIDPETGGITYNQKFKGRATLTADKSTSTAYMELSSLRSEDTAVYYCTRRGARATVYNYVMDYWGQGTLVTVSS
VL: DIQMTQSPSSLSASVGDRVTITCRASENIHNYLAWYQQKPGKAPKLLVYNAKTLGDGVPSRFSGSGSGTDYTLTISSLQPEDFATYYCQHFWSTPWTFGGGTKVEIKR
binds: [6]

B4: 10B10 humanized (antibody, human IgG1, kappa, V domains shown)
VH: QVQLQESGPGLVKPSQTLSLTCAVSGYSITSGYSWNWIRQPPGKGLEWMGYIRFDGNNNYNPFLKNRITISRDTSKNQFSLKLSSVTAADTAVYYCARNYGTWGAMDFWGQGTLVTVSS
VL: DIQLTQSPSSLSASVGDRVTITCKTSQDINKYMAWYQQKPGKAPKLLIYYTSILQPGVPSRFSGSGSGTDYTFTISSLQPEDIATYYCQQYDNLNTFGGGTKVEIKR
binds: [6]
